Literature values, collected in patent publication US20040138247A1 (priority 1999, published 2004).
Counter-ions that a name gives are not always drawn.

Conditions: PDR 54th Edition; cited from earlier work

In the case of `O=C(O)COCCN1CCN(C(c2ccccc2)c2ccc(Cl)cc2)CC1` (centres unmarked) [cetirizine hydrochloride], the “Decrease of Cmax in the presence of food” value is listed as 23% and the “Delay of Tmax in the presence of food” value is listed as 1.7 h.
